Measured values reported in publication PMC3983036.

Target: T1, Myc::Ecd fusion protein (Drosophila Ecdysoneless) (Drosophila melanogaster) (UniProt Q9W032)
T1 sequence: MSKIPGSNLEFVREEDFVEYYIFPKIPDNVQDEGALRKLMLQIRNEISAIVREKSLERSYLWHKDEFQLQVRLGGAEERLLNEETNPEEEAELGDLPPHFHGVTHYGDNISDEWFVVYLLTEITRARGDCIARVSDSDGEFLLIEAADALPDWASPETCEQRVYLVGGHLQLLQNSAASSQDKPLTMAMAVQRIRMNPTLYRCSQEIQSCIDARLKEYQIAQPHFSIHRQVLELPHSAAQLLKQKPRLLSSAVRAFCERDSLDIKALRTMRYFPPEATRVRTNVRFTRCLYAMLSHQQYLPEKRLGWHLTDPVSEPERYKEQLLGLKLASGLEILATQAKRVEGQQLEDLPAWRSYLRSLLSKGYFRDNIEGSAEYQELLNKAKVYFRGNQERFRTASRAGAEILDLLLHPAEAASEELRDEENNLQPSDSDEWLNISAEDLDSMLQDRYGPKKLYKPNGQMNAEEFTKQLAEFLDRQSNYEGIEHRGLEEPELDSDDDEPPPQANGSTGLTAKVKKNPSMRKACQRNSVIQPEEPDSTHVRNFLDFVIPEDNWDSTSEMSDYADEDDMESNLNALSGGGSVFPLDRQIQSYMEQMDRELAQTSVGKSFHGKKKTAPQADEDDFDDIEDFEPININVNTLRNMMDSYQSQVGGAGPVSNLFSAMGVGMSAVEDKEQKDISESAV
Assay: affinity purification with mass spectrometry; extracts of S2 cells expressing Myc::Ecd or the Myc tag alone (pTMW) affinity purified by the Myc epitope, silver-stained SDS-PAGE, cut-out gel sections digested with trypsin and analysed by LC-MS/MS

| Substance | binding |
| --- | --- |
| Aar2 (endogenous, Drosophila S2 cells) | no binding |
| Prp8 (endogenous, Drosophila S2 cells) (from UniProt A1Z8U0 1-2396) | binds |
| Snu114 (endogenous, Drosophila S2 cells) | binds |

No constants are given. Whether binding was seen depends on the method and setting. In cells and extracts the contact can be indirect. These calls come from enrichment with a bait or labelling near it, and not all partners need be listed. A no says only that the protein was not detected with the bait. Sequences can lack the tags named with a protein.
